# Library screening results

From ChEMBL document CHEMBL3988442, “University of Dundee, Small-Polar-MMV Screening Library” (2021).

Mtb growth Cornell: 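Whole-cell assay for inhibitors of Mycobacterium tuberculosis growth, labelled Cornell in the record; the read-out is not stated. The concentration is filed as 10 mM, unlikely as a test dose, so the dose is not known. Higher means stronger inhibition (inferred from two other growth screens of the library). About 53,000 compounds were tested under these conditions; 1.7% (about 900) showed 50% or more at least once.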
Mtb heat-shock: 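Assay on Mycobacterium tuberculosis, filed only as a heat shock assay from Cornell; the read-out is not stated. The concentration is filed as 10 mM, unlikely as a test dose, so the dose is not known. The record gives no direction; compounds that gave an IC50 in retests scored well above the rest, so higher reads as stronger inhibition. About 69,000 compounds were tested under these conditions; 1.4% (about 930) showed 50% or more at least once.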

Results are given as percent effect.
The record does not define 0% and 100%; most values in the screen are far below 50% and negative numbers occur (in some assays of this library far below -100).
Compounds were drawn at random from those tested, without regard to their results.
A dash means the value is not listed here; it may have been measured.

structure,Mtb growth Cornell,Mtb heat-shock
Cc1[nH]c(=O)[nH]c(=O)c1CN1CCCC(CCc2ccc(F)cc2F)C1 (centres unmarked),-,-8.604%
COCC[C@]1(O)CCN(Cc2nc(C)c(C)s2)C[C@H]1C,47.45%,5.547%
Cc1nc(CN2CCCC(c3nccs3)C2)cs1 (centres unmarked),21.02%,-0.7422%
CCc1cn[nH]c1C1CCN(C(=O)c2cc(C#N)c(=O)[nH]c2C)CC1,-,-11.26%
CCC(C(=O)Nc1ccc2c(C)n[nH]c2c1)N1CCCC1=O (centres unmarked),-14.32%,8.775%
CC(C)n1ccnc1CN1CCCN(C(=O)c2cc(Cl)c[nH]2)CC1,18.96%,40.5%
CN(C)C(=O)CN(C)C(=O)c1cnc(Cc2ccc(F)cc2)s1,14.05%,7.397%
Cc1c(Cl)c(C(F)(F)F)nn1C(C)C(=O)NN1CCN(C)CC1 (centres unmarked),-,15.97%
CC(C)c1nc2n(n1)CC(NCc1ccncc1)CC2 (centres unmarked),-0.8033%,3.42%
Fc1cccc(-c2nc(CN3CCOC(Cn4cncn4)C3)co2)c1 (centres unmarked),10.61%,-3.625%
CCCn1cc(C(=O)N2CCCC2(C)c2nc(C)cc(C)n2)cn1 (centres unmarked),-10.99%,-2.287%
Cc1nc(C(C)C)sc1C(=O)NCCn1nc2ccccn2c1=O,-,-14.88%
Cc1cc(C)n(CC2CCCN2C(=O)Cc2cn3ccccc3n2)n1 (centres unmarked),8.877%,-6.591%
[H][C@@]12CCCN1C[C@H](CCSC)N(Cc1cnn(CCC)c1C)C2,6.516%,-10.22%
CC(C)(C)c1n[nH]c(C2CN(C(=O)c3cc(C4CC4)on3)CCO2)n1 (centres unmarked),-19.91%,-2.441%
CC(NC(=O)Nc1ccc(-n2cncn2)cc1)C(=O)NC(C)(C)C (centres unmarked),-13.77%,4.779%
COc1ccccc1C(=O)N1CCN(CCc2scnc2C)CC1,0.8523%,-3.177%
CCn1nc(C)c2nc(C(C)C)nc(N3CCCCC3)c21,10.55%,-11.62%
COc1ccc(F)cc1-c1ccccc1CC1CNCCNC1=O.Cl (centres unmarked),39.64%,-4.814%
CCc1ccccc1OC1CN(C(=O)c2ccsc2)C1,-,19.87%
COc1ccccc1[C@@H]1CN(CC2CCC2)C[C@H]1C(=O)O,13.81%,5.041%
O=C1CC2(CCN(Cc3ncc[nH]3)CC2)CN1Cc1cc(F)cc(F)c1,21.75%,-5.933%
N#Cc1ccnc(N2CCN(Cc3cccc(F)c3)CC2)c1,8.894%,0.8164%
COc1ccccc1C(O)CNC(=O)NCc1cc[nH]n1 (centres unmarked),-,-7.433%
CSc1cccc(CN(C)C(=O)Cn2ncc(N(C)C)cc2=O)c1,13.66%,13.46%
CC(C)[C@@H]1CN(C(=O)CCn2ccccc2=O)C[C@H]1NS(C)(=O)=O,6.148%,-23.38%
CCc1nc(C2CCCN2C(=O)CCc2nc(C3CC3)no2)no1 (centres unmarked),-14.38%,-19.94%
N#Cc1cccc(C(=O)NS(=O)(=O)c2ccc(C#N)c(Cl)c2)c1,0.4591%,-1.992%
NC(=O)CN1CCC2(CC1)CC(=O)c1ccc3ccccc3c1O2,-20.15%,21.82%
CN(C)[C@@H]1CCN(c2ncccn2)[C@H]1Cc1cccnc1.O=C(O)C(F)(F)F.O=C(O)C(F)(F)F,12.67%,-31.07%
CCNC(=O)CCC(=O)Nc1ccc2nn(C(C)C)cc2c1,-14.87%,-22.88%
COc1ccc(OC)c(CNCc2c(C)nc3sc(C)cn23)c1,-,-28.28%
N#Cc1cccc(CN2Cc3nccn3CC(COCC3CC3)C2)c1.O=C(O)C(F)(F)F (centres unmarked),5.039%,-23.01%
O=C(C1CN(Cc2ccoc2)CC12CCOCC2)N1CCCC1 (centres unmarked),-4.951%,-26.39%
O=C(N1CCOCC1)N1CCN(c2ccnc3ccsc23)CC1,0.06667%,4.503%
COc1ccc(CNC(=O)c2ccc(Cl)cc2F)cc1C(=O)O,18.7%,17.58%
O=C1CN(Cc2nnc(-c3ccccc3Br)o2)CCN1,-24.05%,14.67%
COCc1nc(C(=O)NS(=O)(=O)c2ccc(C)s2)cs1,3.246%,-2.198%
N#CCCN1CC(O)CN(C(=O)c2cccc(C(F)(F)F)c2)CC1=O (centres unmarked),2.643%,37.74%
O=C(c1cc(-c2cccs2)cs1)N1CCOCC1,22.18%,13.73%
CN(Cc1ccsc1)C(=O)c1ccc(S(=O)(=O)NC(C)(C)C)cc1,-,-4.351%
O=C(N[C@@H]1CN(Cc2cccc(F)c2)C[C@H]1O)c1cscn1,-,-9.046%
[H][C@]12CCCC(=O)N[C@@]1(C)CCCCN2C(=O)c1cn2cc(C)ccc2n1,2.459%,2.752%
CCN(Cc1ccncc1)C(=O)c1cn(CC2CCCNC2)nn1 (centres unmarked),-,-5.57%
[H][C@@]12CCN(C(C)=O)C[C@]1([H])[C@H](C(=O)NCc1ccco1)CCO2,0.2236%,4.434%
CN1CCC(Cc2nc(-c3cnccn3)n(C3CCS(=O)(=O)C3)n2)CC1 (centres unmarked),19.69%,-8.173%
CCS(=O)(=O)N[C@H]1CN(Cc2noc(COC)n2)C[C@@H]1C1CC1,47.09%,-5.588%
CCOC(=O)N1CCCn2nc(C(=O)NCCN(C)C)cc2C1,0.9389%,-1.844%
Cc1csc(N2CCN(C(=O)C3(C#N)CCCC3)CC2)n1,-,-17.85%
O=C1CC2(CCN(c3nncs3)C2)CN1c1cncnc1 (centres unmarked),-,-28.85%
CC(C)c1nccn1Cc1cc(C(=O)NCC(F)(F)F)n[nH]1,-7.796%,-24.09%
Cc1cnc(C(=O)N2CCCN(c3nc(C)cs3)CC2)cn1,-40.08%,-16.67%
[H][C@@]12CCN(c3ccncn3)C[C@@]1([H])[C@H](C(=O)Nc1cccnc1C)CCO2,3.488%,-0.3444%
NC(=O)c1csc(N2C[C@@H](CN3CCC(O)CC3)[C@@H](CO)C2)n1,-19.22%,0.6005%
CN(C)CC(=O)N1Cc2nc(C(=O)NCc3ccncc3)oc2C1,18.11%,23.53%
O=S(=O)(c1ccc(Cl)s1)N1CCCn2ncnc21,8.508%,-5.407%
CCNc1cc2c(nn1)CCN(C(=O)CC1CCCCC1)C2,-2.268%,15.27%
NC(=O)COc1ccc(C(=O)NCCc2ccco2)cc1,26.29%,1.103%
O=C(COc1cccc(Br)c1)N1CCN(c2nccs2)CC1,9.491%,2.107%
Cc1ccccc1C1CN(c2cnn(C)c(=O)c2Cl)CCO1 (centres unmarked),-6.41%,9.798%
CC(=O)c1ccc(F)cc1-c1cc(NCCO)nc2[nH]ccc12,15.79%,3.461%

The first 7 entries again:

With Cc1[nH]c(=O)[nH]c(=O)c1CN1CCCC(CCc2ccc(F)cc2F)C1 (centres unmarked) the screen gave Mtb heat-shock: -8.604%.
With COCC[C@]1(O)CCN(Cc2nc(C)c(C)s2)C[C@H]1C the screen gave Mtb growth Cornell: 47.45%; Mtb heat-shock: 5.547%.
With Cc1nc(CN2CCCC(c3nccs3)C2)cs1 (centres unmarked) the screen gave Mtb growth Cornell: 21.02%; Mtb heat-shock: -0.7422%.
With CCc1cn[nH]c1C1CCN(C(=O)c2cc(C#N)c(=O)[nH]c2C)CC1 the screen gave Mtb heat-shock: -11.26%.
With CCC(C(=O)Nc1ccc2c(C)n[nH]c2c1)N1CCCC1=O (centres unmarked) the screen gave Mtb growth Cornell: -14.32%; Mtb heat-shock: 8.775%.
With CC(C)n1ccnc1CN1CCCN(C(=O)c2cc(Cl)c[nH]2)CC1 the screen gave Mtb growth Cornell: 18.96%; Mtb heat-shock: 40.5%.
With CN(C)C(=O)CN(C)C(=O)c1cnc(Cc2ccc(F)cc2)s1 the screen gave Mtb growth Cornell: 14.05%; Mtb heat-shock: 7.397%.